Values quoted from earlier work, collected in patent US9434610B2, “HPMA—docetaxel conjugates and uses therefore” (REXAHN PHARMACEUTICALS, INC., priority 2008, dated 2016).

Settings: cited from earlier work

Question: With `CC(=O)O[C@@]12CO[C@@H]1C[C@H](O)[C@@]1(C)C(=O)[C@H](O)C3=C(C)[C@@H](OC(=O)[C@H](O)[C@@H](NC(=O)OC(C)(C)C)c4ccccc4)C[C@@](O)([C@@H](OC(=O)c4ccccc4)[C@H]21)C3(C)C` [Docetaxel] as the compound, how does the solubility in water read?
Answer: Its solubility in water is “practically insoluble in water”.
